# Data: the supplement of paper PMC8728848
# This is one part of the list.
# Assays:
# Assay in all cases: glycan array binding signal (z-score within array); higher = stronger binding
# Settings in all cases: glycan notation: IUPAC condensed, linker removed
# [1] = target: Neu5Ac(a2-3)Gal(b1-4)GlcNAc(b1-3)Gal(b1-4)GlcNAc(b1-3)GalNAc
# Procedure, shortened: (§1)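 Glycan array data were curated from 3228 arrays in the Consortium for Functional Glycomics database and kept only where the protein sequence was available. Glycan names were converted to IUPAC-condensed notation, and columns mapping to the same glycan were averaged. The binding signal is a within-array Z-score, averaged across arrays of the same protein sequence at different concentrations or buffers and across linkers. Negative Z-scores can be read as non-binding.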
# [2] = target: Neu5Ac(a2-3)Gal(b1-4)GlcNAc(b1-3)Gal(b1-4)GlcNAc(b1-3)[Neu5Ac(a2-3)Gal(b1-4)GlcNAc(b1-3)Gal(b1-4)GlcNAc(b1-6)]GalNAc
# Procedure, shortened: as §1
# [3] = target: Neu5Ac(a2-3)Gal(b1-4)GlcNAc(b1-3)Gal(b1-4)GlcNAc(b1-6)[Gal(b1-3)]GalNAc
# Procedure, shortened: as §1
# [4] = target: Neu5Ac(a2-3)Gal(b1-4)GlcNAc(b1-3)Gal(b1-4)[Fuc(a1-3)]GlcNAc
# Procedure, shortened: as §1
# [5] = target: Neu5Ac(a2-3)Gal(b1-4)GlcNAc(b1-3)GalNAc
# Procedure, shortened: as §1
# [6] = target: Neu5Ac(a2-3)Gal(b1-4)GlcNAc(b1-3)[Neu5Ac(a2-3)Gal(b1-4)GlcNAc(b1-6)]GalNAc
# Procedure, shortened: as §1
# [7] = target: Neu5Ac(a2-3)Gal(b1-4)GlcNAc(b1-6)GalNAc
# Procedure, shortened: as §1
# [8] = target: Neu5Ac(a2-3)Gal(b1-4)GlcNAc(b1-6)[Gal(b1-3)]GalNAc
# Procedure, shortened: as §1
# [9] = target: Neu5Ac(a2-3)Gal(b1-4)GlcNAc(b1-6)[Neu5Ac(a2-3)Gal(b1-3)]GalNAc
# Procedure, shortened: as §1
# [10] = target: Neu5Ac(a2-3)Gal(b1-4)GlcNAc6S
# Procedure, shortened: as §1
# [11] = target: Neu5Ac(a2-3)Gal(b1-4)[Fuc(a1-3)]GlcNAc
# Procedure, shortened: as §1
# [12] = target: Neu5Ac(a2-3)Gal(b1-4)[Fuc(a1-3)]GlcNAc(b1-2)Man
# Procedure, shortened: as §1
# [13] = target: Neu5Ac(a2-3)Gal(b1-4)[Fuc(a1-3)]GlcNAc(b1-3)Gal
# Procedure, shortened: as §1
# [14] = target: Neu5Ac(a2-3)Gal(b1-4)[Fuc(a1-3)]GlcNAc(b1-3)Gal(b1-4)GlcNAc
# Procedure, shortened: as §1
# [15] = target: Neu5Ac(a2-3)Gal(b1-4)[Fuc(a1-3)]GlcNAc(b1-3)Gal(b1-4)[Fuc(a1-3)]GlcNAc(b1-3)Gal(b1-4)[Fuc(a1-3)]GlcNAc
# Procedure, shortened: as §1
# [16] = target: Neu5Ac(a2-3)Gal(b1-4)[Fuc(a1-3)]GlcNAc(b1-3)GalNAc
# Procedure, shortened: as §1
# [17] = target: Neu5Ac(a2-3)Gal(b1-4)[Fuc(a1-3)]GlcNAc(b1-6)[Gal(b1-3)]GalNAc
# Procedure, shortened: as §1
# [18] = target: Neu5Ac(a2-3)Gal(b1-4)[Fuc(a1-3)]GlcNAc(b1-6)[Neu5Ac(a2-3)Gal(b1-3)]GalNAc
# Procedure, shortened: as §1
# [19] = target: Neu5Ac(a2-3)Gal(b1-4)[Fuc(a1-3)]GlcNAc6S
# Procedure, shortened: as §1
# [20] = target: Neu5Ac(a2-3)Gal6S(b1-4)GlcNAc
# Procedure, shortened: as §1
# [21] = target: Neu5Ac(a2-3)Gal6S(b1-4)[Fuc(a1-3)]GlcNAc
# Procedure, shortened: as §1
# Neu5Ac(a2-3)GalNAc = target: Neu5Ac(a2-3)GalNAc
# Procedure, shortened: as §1
# [22] = target: Neu5Ac(a2-3)GalNAc(b1-4)GlcNAc
# Procedure, shortened: as §1
# [23] = target: Neu5Ac(a2-3)[GalNAc(b1-4)]Gal(b1-4)Glc
# Procedure, shortened: as §1
# [24] = target: Neu5Ac(a2-3)[GalNAc(b1-4)]Gal(b1-4)GlcNAc
# Procedure, shortened: as §1
# [25] = target: Neu5Ac(a2-3)[GalNAc(b1-4)]Gal(b1-4)GlcNAc(b1-3)GalNAc
# Procedure, shortened: as §1
# [26] = target: Neu5Ac(a2-3)[Neu5Ac(a2-6)]GalNAc
# Procedure, shortened: as §1
# Neu5Ac(a2-6)Gal = target: Neu5Ac(a2-6)Gal
# Procedure, shortened: as §1
# [27] = target: Neu5Ac(a2-6)Gal(b1-3)GlcNAc(b1-3)[Gal(b1-4)GlcNAc(b1-6)]Gal(b1-4)Glc
# Procedure, shortened: as §1
# Neu5Ac(a2-6)Gal(b1-4)Glc = target: Neu5Ac(a2-6)Gal(b1-4)Glc
# Procedure, shortened: as §1
# [28] = target: Neu5Ac(a2-6)Gal(b1-4)GlcNAc
# Procedure, shortened: as §1
# [29] = target: Neu5Ac(a2-6)Gal(b1-4)GlcNAc(b1-2)Man
# Procedure, shortened: as §1
# [30] = target: Neu5Ac(a2-6)Gal(b1-4)GlcNAc(b1-2)Man(a1-3)Man(b1-4)GlcNAc(b1-4)GlcNAc
# Procedure, shortened: as §1
# [31] = target: Neu5Ac(a2-6)Gal(b1-4)GlcNAc(b1-2)Man(a1-3)[Gal(b1-4)GlcNAc(b1-2)Man(a1-6)]Man(b1-4)GlcNAc(b1-4)GlcNAc
# Procedure, shortened: as §1
# [32] = target: Neu5Ac(a2-6)Gal(b1-4)GlcNAc(b1-2)Man(a1-3)[GlcNAc(b1-2)Man(a1-6)]Man(b1-4)GlcNAc(b1-4)GlcNAc
# Procedure, shortened: as §1
# [33] = target: Neu5Ac(a2-6)Gal(b1-4)GlcNAc(b1-2)Man(a1-3)[GlcNAc(b1-2)Man(b1-4)GlcNAc(b1-2)Man(a1-6)]Man(b1-4)GlcNAc(b1-4)GlcNAc
# Procedure, shortened: as §1
# [34] = target: Neu5Ac(a2-6)Gal(b1-4)GlcNAc(b1-2)Man(a1-3)[GlcNAc(b1-4)][Neu5Ac(a2-6)Gal(b1-4)GlcNAc(b1-2)Man(a1-6)]Man(b1-4)GlcNAc(b1-4)GlcNAc
# Procedure, shortened: as §1
binder,measurement,setting,value
"GST-Gap1 (Streptococcus parasanguinis), A1C3L5 (protein) MFYFVPSWYNGQRQWYYDTPWWFRVKNRMTFDDSVNQVKMFLQGQEEIGLMILNYQPQLRYFLHKQNIFGIYYWSFFDDIQNITRSYTKIIHLKDLNWPEGCEFLYSPFAVVVRLKGEIFAIVNYAEDGNLHSVSFQKNGKVTKDYIFDDRGFLSSILYYDIDERPLYQDYLNINGVWQVREFLKKENDPTPILMINDFSDQTFSKKYYNGWEELIKERLAIFQNNHVENEDVFVLASDTQHNQLVSSIFKEHRKIYSFFGNRFNLENLGQDRISINDATFLVVDTEKNEELLRKTCENLVFKSIPIVRLSPFDSRLRLGHSQTVKEQIIYFHIDNIELDELYSVIAIILELMTLHLDIELRIVTFRQDFQLDLLKTWIIDFIKTNHFEDLLFKQISEGENEIEDEGEIELSRIAMECFTNENQIIKCLDTARLVIDLGIEPDLYTQIASISAGIPQINRVSSDYVIHQKNGLVISDISKLSSAIEFYFDGLFNWNEALIYAVRKMSDYTSGKILKQWKGMLKKK",glycan array binding signal (z-score),[1],-0.012
same,glycan array binding signal (z-score),[2],0.525
same,glycan array binding signal (z-score),[3],-0.747
same,glycan array binding signal (z-score),[4],-0.346
same,glycan array binding signal (z-score),[5],-0.108
same,glycan array binding signal (z-score),[6],0.39
same,glycan array binding signal (z-score),[7],0.215
same,glycan array binding signal (z-score),[8],-0.423
same,glycan array binding signal (z-score),[9],0.09
same,glycan array binding signal (z-score),[10],-0.075
same,glycan array binding signal (z-score),[11],-0.399
same,glycan array binding signal (z-score),[12],-1.03
same,glycan array binding signal (z-score),[13],-0.085
same,glycan array binding signal (z-score),[14],1.55
same,glycan array binding signal (z-score),[15],0.525
same,glycan array binding signal (z-score),[16],1.62
same,glycan array binding signal (z-score),[17],1.35
same,glycan array binding signal (z-score),[18],-0.37
same,glycan array binding signal (z-score),[19],0.406
same,glycan array binding signal (z-score),[20],-0.226
same,glycan array binding signal (z-score),[21],-0.201
same,glycan array binding signal (z-score),Neu5Ac(a2-3)GalNAc,-0.568
same,glycan array binding signal (z-score),[22],0.072
same,glycan array binding signal (z-score),[23],-0.656
same,glycan array binding signal (z-score),[24],-0.174
same,glycan array binding signal (z-score),[25],0.114
same,glycan array binding signal (z-score),[26],-0.69
same,glycan array binding signal (z-score),Neu5Ac(a2-6)Gal,-0.005
same,glycan array binding signal (z-score),[27],-0.521
same,glycan array binding signal (z-score),Neu5Ac(a2-6)Gal(b1-4)Glc,-0.264
same,glycan array binding signal (z-score),[28],-0.228
same,glycan array binding signal (z-score),[29],1.38
same,glycan array binding signal (z-score),[30],-0.001
same,glycan array binding signal (z-score),[31],1.8
same,glycan array binding signal (z-score),[32],-0.335
same,glycan array binding signal (z-score),[33],0.287
same,glycan array binding signal (z-score),[34],-0.168

# Part of the list above in another layout:
binder	measurement	setting	value
GST-Gap1 (Streptococcus parasanguinis), A1C3L5 (protein) MFYFVPSWYNGQRQWYYDTPWWFRVKNRMTFDDSVNQVKMFLQGQEEIGLMILNYQPQLRYFLHKQNIFGIYYWSFFDDIQNITRSYTKIIHLKDLNWPEGCEFLYSPFAVVVRLKGEIFAIVNYAEDGNLHSVSFQKNGKVTKDYIFDDRGFLSSILYYDIDERPLYQDYLNINGVWQVREFLKKENDPTPILMINDFSDQTFSKKYYNGWEELIKERLAIFQNNHVENEDVFVLASDTQHNQLVSSIFKEHRKIYSFFGNRFNLENLGQDRISINDATFLVVDTEKNEELLRKTCENLVFKSIPIVRLSPFDSRLRLGHSQTVKEQIIYFHIDNIELDELYSVIAIILELMTLHLDIELRIVTFRQDFQLDLLKTWIIDFIKTNHFEDLLFKQISEGENEIEDEGEIELSRIAMECFTNENQIIKCLDTARLVIDLGIEPDLYTQIASISAGIPQINRVSSDYVIHQKNGLVISDISKLSSAIEFYFDGLFNWNEALIYAVRKMSDYTSGKILKQWKGMLKKK	glycan array binding signal (z-score)	[18]	-0.37
same	glycan array binding signal (z-score)	[19]	0.406
